Among the data in paper PMC12914105 are binding values, retold here.

Chains of the proteins cited; added tags and fusions are not shown. Residues count along the entry.
UniProt P08134: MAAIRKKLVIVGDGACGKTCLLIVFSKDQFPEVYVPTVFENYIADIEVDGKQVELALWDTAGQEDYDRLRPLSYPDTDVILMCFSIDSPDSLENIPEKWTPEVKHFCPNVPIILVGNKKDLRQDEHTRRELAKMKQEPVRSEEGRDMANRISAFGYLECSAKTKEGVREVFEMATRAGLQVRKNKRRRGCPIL
UniProt P14625, residues 22-803: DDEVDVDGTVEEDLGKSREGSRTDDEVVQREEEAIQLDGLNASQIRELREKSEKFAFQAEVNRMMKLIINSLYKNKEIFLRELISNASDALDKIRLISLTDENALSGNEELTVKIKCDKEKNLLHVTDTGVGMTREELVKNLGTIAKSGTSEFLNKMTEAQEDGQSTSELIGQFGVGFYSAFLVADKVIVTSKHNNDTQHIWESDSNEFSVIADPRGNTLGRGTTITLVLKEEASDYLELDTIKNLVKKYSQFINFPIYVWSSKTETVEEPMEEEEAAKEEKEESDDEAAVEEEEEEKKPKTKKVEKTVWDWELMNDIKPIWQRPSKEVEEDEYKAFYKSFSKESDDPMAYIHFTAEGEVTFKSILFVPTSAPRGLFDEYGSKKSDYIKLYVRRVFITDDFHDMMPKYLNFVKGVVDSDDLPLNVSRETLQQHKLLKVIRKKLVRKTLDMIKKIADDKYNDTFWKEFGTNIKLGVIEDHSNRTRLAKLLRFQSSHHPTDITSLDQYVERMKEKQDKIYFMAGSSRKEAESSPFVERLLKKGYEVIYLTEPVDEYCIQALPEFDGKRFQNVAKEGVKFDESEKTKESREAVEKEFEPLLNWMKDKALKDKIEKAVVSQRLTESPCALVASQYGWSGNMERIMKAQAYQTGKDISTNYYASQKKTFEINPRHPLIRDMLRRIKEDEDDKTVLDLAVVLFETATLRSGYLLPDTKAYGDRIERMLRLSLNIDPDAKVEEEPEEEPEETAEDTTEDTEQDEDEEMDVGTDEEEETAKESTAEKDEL

Results are given in words; binding and its absence hold for the method and conditions named. In cells and extracts the contact can be indirect. Some entries that bind do so weakly or less than the wild type.

The target of experiment [1] is Flag-tagged RhoC (UniProt P08134). The experiment can be described thus: co-IP; Flag-tagged RhoC overexpressed in LN229 cells, immunoprecipitated with an anti-Flag antibody (lysis buffer 137 mM NaCl, 20 mM Tris-HCl pH 8, 1% NP-40, 2 mM EDTA); HSP90B1 detected by Western blot. (In western blotting, separated proteins are transferred to a membrane and probed.)
In experiment [2] the target is heat shock protein 90 beta family member 1 (HSP90B1) (human (endogenous in LN229)) (UniProt P14625). The experiment can be described thus: co-IP; anti-HSP90B1 antibody added to cell lysate (137 mM NaCl, 20 mM Tris-HCl pH 8, 1% NP-40, 2 mM EDTA), 4 °C overnight, Protein A/G PLUS-Agarose; RhoC detected by Western blot; IgG control; cell line not stated.

As for “heat shock protein 90 beta family member 1 (HSP90B1) (from UniProt P14625 22-803)”, the binding entry in experiment [1] is recorded as “binds”.
With “ras homolog family member C (RhoC) (from UniProt P08134 1-193)”, in experiment [2], the binding result was “binds”.
